Data on one molecule can be found in PMC8446030.

No constants are given. Whether binding was seen depends on the method and setting. In cells and extracts the contact can be indirect. Some results given as binding are weak or reduced against the parent protein; the word gives no strength.

For this test, the target named is T1, SOX9 (human (endogenous in LX-2)), P48436.
T1 chain: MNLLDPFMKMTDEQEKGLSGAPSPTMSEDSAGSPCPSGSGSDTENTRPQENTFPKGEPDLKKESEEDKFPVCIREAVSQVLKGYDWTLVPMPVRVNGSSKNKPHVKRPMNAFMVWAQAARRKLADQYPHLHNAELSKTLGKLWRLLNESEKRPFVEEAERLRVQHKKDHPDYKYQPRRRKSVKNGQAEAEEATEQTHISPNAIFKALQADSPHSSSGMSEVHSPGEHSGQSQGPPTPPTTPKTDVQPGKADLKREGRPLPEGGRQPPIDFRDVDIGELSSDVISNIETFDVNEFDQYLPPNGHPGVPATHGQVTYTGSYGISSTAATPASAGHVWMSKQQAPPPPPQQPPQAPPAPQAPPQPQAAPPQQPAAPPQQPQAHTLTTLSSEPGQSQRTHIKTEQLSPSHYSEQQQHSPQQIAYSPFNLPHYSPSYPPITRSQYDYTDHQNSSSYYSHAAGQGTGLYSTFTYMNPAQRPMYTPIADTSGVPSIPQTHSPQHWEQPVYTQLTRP
Nature of the test: co-IP; 1 mg total protein lysate of activated LX-2 cells; IP with rabbit monoclonal anti-β-catenin, mouse monoclonal anti-SOX9 or control IgG, 4 °C 4 h, protein A/G PLUS-Agarose; immunoblot with anti-β-catenin or anti-SOX9. To be noted: remark: other sources report otherwise.

B1: β-catenin, P35222 1-781 (protein)
chain: MATQADLMELDMAMEPDRKAAVSHWQQQSYLDSGIHSGATTTAPSLSGKGNPEEEDVDTSQVLYEWEQGFSQSFTQEQVADIDGQYAMTRAQRVRAAMFPETLDEGMQIPSTQFDAAHPTNVQRLAEPSQMLKHAVVNLINYQDDAELATRAIPELTKLLNDEDQVVVNKAAVMVHQLSKKEASRHAIMRSPQMVSAIVRTMQNTNDVETARCTAGTLHNLSHHREGLLAIFKSGGIPALVKMLGSPVDSVLFYAITTLHNLLLHQEGAKMAVRLAGGLQKMVALLNKTNVKFLAITTDCLQILAYGNQESKLIILASGGPQALVNIMRTYTYEKLLWTTSRVLKVLSVCSSNKPAIVEAGGMQALGLHLTDPSQRLVQNCLWTLRNLSDAATKQEGMEGLLGTLVQLLGSDDINVVTCAAGILSNLTCNNYKNKMMVCQVGGIEALVRTVLRAGDREDITEPAICALRHLTSRHQEAEMAQNAVRLHYGLPVVVKLLHPPSHWPLIKATVGLIRNLALCPANHAPLREQGAIPRLVQLLVRAHQDTQRRTSMGGTQQQFVEGVRMEEIVEGCTGALHILARDVHNRIVIRGLNTIPLFVQLLYSPIENIQRVAAGVLCELAQDKEAAEAIEAEGATAPLTELLHSRNEGVATYAAAVLFRMSEDKPQDYKKRLSVELTSSLFRTEPMAWNETADLGLDIGAQGEPLGYRQDDPSYRSFHSGGYGQDALGMDPMMEHEMGGHHPGADYPVDGLPDLGHAQDLMDGLPPGDSNQLAWFDTDL
Consider B1, for which the binding result is listed as “binds”.
